Test results reported in PMC3150355.
The exact form of at least one protein or probe is not confirmed. For some assays here: No signal at the amounts used counts as a negative.

Sequences of proteins named here, by UniProt entry; tags and fusion partners are left off. A change or cut given only in a name is not applied to a line headed by its entry.
UniProt Q8NHW3: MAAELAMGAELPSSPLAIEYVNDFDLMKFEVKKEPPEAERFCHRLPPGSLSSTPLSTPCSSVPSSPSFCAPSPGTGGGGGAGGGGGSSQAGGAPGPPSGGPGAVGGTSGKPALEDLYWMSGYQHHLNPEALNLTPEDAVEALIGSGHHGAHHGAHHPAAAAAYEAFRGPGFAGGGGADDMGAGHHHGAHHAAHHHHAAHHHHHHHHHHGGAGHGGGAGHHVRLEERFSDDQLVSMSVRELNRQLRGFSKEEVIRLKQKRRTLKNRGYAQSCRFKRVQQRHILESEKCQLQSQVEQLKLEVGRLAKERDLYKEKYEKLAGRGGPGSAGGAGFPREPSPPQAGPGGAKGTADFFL

How the values were obtained:
[1] = system: ERK2 kinase alone; assay: EMSA; details: kinase alone, PBS instead of TAT-MafA; Pierce LightShift chemiluminescent EMSA kit; 200 fmol/ul biotin-DNA, unlabeled competitor 10 pmol/ul, 82.15 ug TAT-MafA; ERK2 or PBS 37 C 1 h, then 20 min binding; commercial protein
[2] = target: TAT-MafA, ERK2 kinase treated (human) (UniProt Q8NHW3); assay: EMSA; details: ERK2-phosphorylated TAT-MafA; Pierce LightShift chemiluminescent EMSA kit; 200 fmol/ul biotin-DNA, unlabeled competitor 10 pmol/ul, 82.15 ug TAT-MafA; ERK2 or PBS 37 C 1 h, then 20 min binding; recombinant protein

“ATGGTCCGGAAATTGCAGCCTCAGCCCCCAGCCATC (double strand) [insulin promoter -139 to -104 (C1 box)]”: no binding [1]; binds [2].
